PubChem BioAssay AID720505, Drosophila RNAi Screening Center, 2013
The deposit covers about 20,000 reagents; shown is a random part of those that have a named target and a result. In the full data, about 2,100 (10%) got an active call. 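Raw plate signals without normalisation; calls rest on control-based scores that were not deposited; replicate 2 separates called from uncalled poorly.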 Reagents against one gene are numbered here. A plus sign joins genes that one reagent is predicted to hit. Reagent sequences are not shown. Not stated in the record: the amount of reagent, the time to read-out.

- Screen: 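Genes needed for store-operated calcium entry in fly cells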 (primary screen)
- Cells: Drosophila S2R+ cells
- Reagents: long dsRNA against Drosophila genes
- Challenge: thapsigargin (2 µM) in calcium-free buffer to empty internal stores, then 2 mM calcium added back
- Detection: 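Fluo-4 signal in 384-well plates read on a FLIPR after thapsigargin (2 µM, calcium-free) store depletion and 2 mM calcium add-back; unnormalised mean endpoint per well; screen run twice, selected wells retested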
- Scale: calcium signal and retest calcium signal: higher = more calcium entry after store depletion
- Rule for the call: 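About 1500 genes called as lowering calcium entry, by varying amounts, judged against per-plate control wells with STIM1 as positive and Rho1 as negative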
- Calls: active = called as lowering calcium entry; inactive = not called

| gene knocked down | dsRNA no. | calcium signal, replicate 1 | calcium signal, replicate 2 | retest calcium signal, replicate 1 | retest calcium signal, replicate 2 | outcome |
| --- | --- | --- | --- | --- | --- | --- |
| CG10565 | 1 | 152 | 114 | – | – | inactive |
| Trpm | 1 | 107 | 115 | – | – | inactive |
| Trpm | 2 | 135 | 69.9 | – | – | inactive |
| CG30158 | 1 | 67.8 | 81.7 | – | – | active |
| CG30158 | 2 | 100 | 94.3 | – | – | inactive |
| CG30158 | 3 | 75.8 | 79.2 | – | – | inactive |
| CG30158 | 4 | 76.1 | 80.7 | – | – | inactive |
| CG15249 | 1 | 139 | 109 | – | – | inactive |
| Spc25 | 1 | 111 | 90.2 | – | – | inactive |
| CG3655 | 1 | 84.9 | 145 | – | – | inactive |
| CG3655 | 2 | 96.9 | 133 | – | – | inactive |
| CG3655 | 3 | 104 | 154 | – | – | inactive |
| Mal-A5 | 1 | 183 | 127 | – | – | inactive |
| CG8635 | 1 | 198 | 150 | – | – | inactive |
| CG8292 | 1 | 169 | 157 | – | – | inactive |
| Acp76A | 1 | 112 | 91.9 | – | – | inactive |
| Sap30 | 1 | 117 | 104 | – | – | inactive |
| Ubqn | 1 | 81.7 | 112 | – | – | inactive |
| CG5281 | 1 | 166 | 138 | – | – | inactive |
| CG40378 (retired record) | 1 | 123 | 13361 | – | – | inactive |
| CG40378 (retired record) | 2 | 115 | 241 | – | – | inactive |
| MFS10 | 1 | 147 | 136 | – | – | inactive |
| CG8892 | 1 | 72 | 185 | – | – | inactive |
| GluRIIC | 1 | 142 | 202 | – | – | inactive |
| Dim1 | 1 | 90.6 | 78.7 | – | – | inactive |
| br | 1 | 98.1 | 169 | – | – | inactive |
| br | 2 | 107 | 137 | 102 | 80.6 | inactive |
| br | 3 | 75.6 | 155 | – | – | inactive |
| Sply | 1 | 89.7 | 162 | – | – | inactive |
| CG4836 | 1 | 188 | 206 | – | – | inactive |
| CG4836 | 2 | 114 | 250 | – | – | inactive |
| E(spl)malpha-BFM | 1 | 175 | 159 | – | – | inactive |
| Slh | 1 | 174 | 156 | – | – | inactive |
| Slh | 2 | 181 | 104 | – | – | inactive |
| lectin-28C | 1 | 84.4 | 102 | – | – | inactive |
| GILT2 | 1 | 176 | 316 | – | – | inactive |
| thw | 1 | 45.4 | 170 | – | – | active |
| Hrd3 | 1 | 165 | 282 | – | – | inactive |
| Oseg2 | 1 | 77.3 | 116 | – | – | inactive |
| Mettl3 | 1 | 267 | 181 | – | – | inactive |
| CG13130 (retired record) | 1 | 112 | 114 | – | – | inactive |
| CG7550 | 1 | 104 | 75.4 | – | – | inactive |
| corto | 1 | 112 | 105 | – | – | inactive |
| corto | 2 | 83 | 183 | – | – | inactive |
| corto | 3 | 117 | 138 | – | – | inactive |
| CG18766 | 1 | 121 | 113 | – | – | inactive |
| CG30259 | 1 | 148 | 124 | – | – | inactive |
| CG30259 | 2 | 141 | 128 | – | – | inactive |
| pll | 1 | 122 | 104 | – | – | inactive |
| 5-HT2A | 1 | 52.3 | 121 | – | – | active |
| CG5292 | 1 | 157 | 115 | – | – | inactive |
| EDTP | 1 | 154 | 154 | – | – | inactive |
| noc | 1 | 131 | 139 | – | – | inactive |
| CG9072 | 1 | 96.9 | 135 | – | – | inactive |
| MED14 | 1 | 57 | 38.3 | – | – | active |
| CG42795 | 1 | 67.7 | 109 | – | – | active |
| CR44003 + CG44002 | 1 | 115 | 177 | – | – | inactive |
| CR44003 + CG44002 | 2 | 98.4 | 131 | – | – | inactive |
| robo3 | 1 | 188 | 161 | – | – | inactive |
| robo3 | 2 | 217 | 161 | – | – | inactive |
| robo3 | 3 | 157 | 176 | – | – | inactive |
| CG7137 | 1 | 103 | 83.6 | – | – | inactive |
| l(3)72Dp | 1 | 80.5 | 178 | – | – | inactive |
| CG12990 | 1 | 115 | 122 | – | – | inactive |
| IntS1 | 1 | 197 | 97.8 | – | – | inactive |
| puml | 1 | 73.3 | 98.3 | – | – | inactive |
| mam | 1 | 84.1 | 106 | – | – | inactive |
| mam | 2 | 105 | 175 | – | – | inactive |
| mam | 3 | 87.7 | 66.1 | – | – | inactive |
| VhaSFD | 1 | 87.7 | 89 | – | – | inactive |
| CG14797 + CG32809 | 1 | 119 | 140 | – | – | inactive |
| Lim1 | 1 | 111 | 90.8 | – | – | inactive |
| Lim1 | 2 | 67.5 | 190 | 6483 | 142 | active |
| CG15879 | 1 | 65.1 | 111 | – | – | inactive |
| Gr22c | 1 | 107 | 244 | – | – | inactive |
| eIF4G1 | 1 | 94.1 | 132 | – | – | inactive |
| CG11906 | 1 | 94 | 97.8 | – | – | inactive |
| fus | 1 | 103 | 135 | – | – | inactive |
| fus | 2 | 115 | 129 | – | – | inactive |
| CG13982 | 1 | 72.7 | 111 | – | – | active |
| zormin | 1 | 93.8 | 108 | – | – | inactive |
| zormin | 2 | 57.6 | 69.9 | – | – | active |
| zormin | 3 | 78.6 | 103 | – | – | inactive |
| zormin | 4 | 88.8 | 108 | – | – | inactive |
| zormin | 5 | 146 | 110 | – | – | inactive |
| zormin | 6 | 150 | 196 | – | – | inactive |

Entries above marked active (8):
| gene knocked down | dsRNA no. | calcium signal, replicate 1 | calcium signal, replicate 2 | retest calcium signal, replicate 1 | retest calcium signal, replicate 2 | outcome |
| --- | --- | --- | --- | --- | --- | --- |
| CG30158 | 1 | 67.8 | 81.7 | – | – | active |
| thw | 1 | 45.4 | 170 | – | – | active |
| 5-HT2A | 1 | 52.3 | 121 | – | – | active |
| MED14 | 1 | 57 | 38.3 | – | – | active |
| CG42795 | 1 | 67.7 | 109 | – | – | active |
| Lim1 | 2 | 67.5 | 190 | 6483 | 142 | active |
| CG13982 | 1 | 72.7 | 111 | – | – | active |
| zormin | 2 | 57.6 | 69.9 | – | – | active |
